Results published in patent publication US20240255529A1, “NOVEL ASSAY AND NOVEL METHODS OF TREATING AGING-RELATED CONDITIONS” (The Progeria Research Foundation, priority 2021, published 2024).

Tested on: progerin
Experiment: Lonafarnib interference assay (HGPS plasma spiked with lonafarnib, SMC progerin immunoassay)
Parameters: species or system human
Settings: HGPS plasma spiked with 7.92 μg/mL lonafarnib (3×Cmax) in DMSO; p=0.198

## NC(=O)N1CCC(CC(=O)N2CCC([C@H]3c4ncc(Br)cc4CCc4cc(Cl)cc(Br)c43)CC2)CC1 [lonafarnib]
  interference of lonafarnib with progerin detection (mean progerin vs DMSO control): did not interfere
